Binding data for eight molecules are collected here from paper PMC3141008.

The chains are these.
T1: NUCLEAR RNA POLYMERASE D1 (NRPD1), carboxy-terminal 3×Flag tagged (Arabidopsis thaliana), Q9LQ02
T1 chain: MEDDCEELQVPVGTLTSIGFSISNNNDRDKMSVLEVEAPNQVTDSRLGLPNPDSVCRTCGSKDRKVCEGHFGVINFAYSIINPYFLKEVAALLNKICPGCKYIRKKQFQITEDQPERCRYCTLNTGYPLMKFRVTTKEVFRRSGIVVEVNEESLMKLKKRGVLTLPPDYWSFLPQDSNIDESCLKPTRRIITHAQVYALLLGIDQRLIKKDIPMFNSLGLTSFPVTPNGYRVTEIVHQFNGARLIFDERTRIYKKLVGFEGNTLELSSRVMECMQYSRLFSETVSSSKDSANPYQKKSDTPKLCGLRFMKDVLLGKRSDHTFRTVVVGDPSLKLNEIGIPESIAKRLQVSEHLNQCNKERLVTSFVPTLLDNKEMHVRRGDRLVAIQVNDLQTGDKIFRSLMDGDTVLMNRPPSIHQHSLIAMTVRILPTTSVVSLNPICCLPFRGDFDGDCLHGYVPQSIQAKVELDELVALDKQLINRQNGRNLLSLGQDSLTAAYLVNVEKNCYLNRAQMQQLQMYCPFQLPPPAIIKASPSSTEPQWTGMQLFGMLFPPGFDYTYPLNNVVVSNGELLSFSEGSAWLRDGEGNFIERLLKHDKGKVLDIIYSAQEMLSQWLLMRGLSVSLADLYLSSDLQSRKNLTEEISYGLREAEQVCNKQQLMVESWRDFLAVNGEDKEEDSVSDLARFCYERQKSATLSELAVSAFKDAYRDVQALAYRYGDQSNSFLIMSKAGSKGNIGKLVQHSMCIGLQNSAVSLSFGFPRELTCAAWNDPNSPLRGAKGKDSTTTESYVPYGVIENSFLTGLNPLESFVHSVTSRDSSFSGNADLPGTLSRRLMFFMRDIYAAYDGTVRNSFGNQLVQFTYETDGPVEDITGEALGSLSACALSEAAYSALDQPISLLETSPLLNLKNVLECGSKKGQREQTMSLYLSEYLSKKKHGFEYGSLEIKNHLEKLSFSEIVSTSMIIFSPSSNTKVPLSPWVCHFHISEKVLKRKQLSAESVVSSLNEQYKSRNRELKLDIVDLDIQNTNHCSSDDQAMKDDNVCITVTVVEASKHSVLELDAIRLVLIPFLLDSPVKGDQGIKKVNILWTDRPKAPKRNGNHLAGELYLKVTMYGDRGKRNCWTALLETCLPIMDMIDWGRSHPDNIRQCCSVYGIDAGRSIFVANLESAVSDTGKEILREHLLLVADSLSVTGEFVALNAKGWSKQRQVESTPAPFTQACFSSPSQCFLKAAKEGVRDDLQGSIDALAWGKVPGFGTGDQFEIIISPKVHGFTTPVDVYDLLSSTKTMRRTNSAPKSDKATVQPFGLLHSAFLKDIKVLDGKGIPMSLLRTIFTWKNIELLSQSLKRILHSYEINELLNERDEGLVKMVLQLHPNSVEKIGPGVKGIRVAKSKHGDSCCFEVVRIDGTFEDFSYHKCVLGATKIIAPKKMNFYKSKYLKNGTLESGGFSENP

B1: NRPE7 (protein, UniProt A6QRA1 1-178)
chain: MFLKVQLPWNVMIPAENMDAKGLMLKRAILVELLEAFASKKATKELGYYVAVTTLDKIGEGKIREHTGEVLFPVMFSGMTFKIFKGEIIHGVVHKVLKHGVFMRCGPIENVYLSYTKMPDYKYIPGENPIFMNEKTSRIQVETTVRVVVIGIKWMEVEREFQALASLEGDYLGPLSEE
B2: SAWADEE HOMEODOMAIN HOMOLOG 2 (SHH2) (protein, UniProt Q8RWJ7 1-348)
chain: MGRPPSNGGPAFRFILPEVTEMEAILLQHNTAMPGRHILEALADKFSESPERKGKVVVQFKQIWNWFQNRRYALRARGNKAPGKLNVSSMPRMDLPNQMRSVIQPLSVPKTTHMTGNLPGMTPAPSGSLVPGVMRSGSDNSYLEFEAKSARDGAWYDVQAFLAHRNLEIGDPEVQVRFAGFEVEEDEWINVKKHVRQRSLPCEASECVAVLAGDLVLCFQEGKDQALYFDAIVLDAQRRRHDVRGCRCRFLVRYSHDQSEEIVPLRKICRRPETDYRLQQLHNAVNDLANSNQHQIPALDAAAKTPLSLPGATVPIVAPESKDPSLSATPATLVQPSSNAATVPAGSA
B3: NRPE5B (protein, UniProt Q9ZVB9 1-218)
chain: MEGKGKEIVVGHSISKSSVECHKYYLARRTTMEMLRDRGYDVSDEDINLSLQQFRALYGEHPDVDLLRISAKHRFDSSKKISVVFCGTGIVKVNAMRVIAADVLSRENITGLILVLQSHITNQALKAVELFSFKVELFEITDLLVNVSKHVLRPKHQVLNDKEKESLLKKFSIEEKQLPRLSSKDPIVRYYGLETGQVMKVTYKDELSESHVTYRCVS
B4: SAWADEE HOMEODOMAIN HOMOLOG 1 (SHH1), endogenous (protein, UniProt Q9XI47 1-258)
chain: MAASDDSSHYFTEFTLSEIVDMENLYKELGDQSLHKDFCQTVASTFSCSVNRNGKSSITWKQVQIWFQEKLKHQSQPKSKTLPSPPLQIHDLSNPSSYASNASNATFVGNSTFVQTRKGKASDLADLAFEAKSARDYAWYDVSSFLTYRVLRTGELEVRVRFSGFDNRHDEWVNVKTSVRERSIPVEPSECGRVNVGDLLLCFQEREDQALYCDGHVLNIKRGIHDHARCNCVFLVRYELDNTEESLGLERICRRPEE
B5: NRPD4/E4 (protein, UniProt Q6DBA5 1-205)
chain: MSEKGGKGLKSSLKSKDGGKDGSSTKLKKGRKIHFDQRTPPANYKILNVSSDQQPFQSSAAKCGKSDKPTKSSKNSLHSFELKDLPENAECMMDCEAFQILDGIKGQLVGLSEDPSIKIPVSYDRALAYVESCVHYTNPQSVRKVLEPLKTYGISDGEMCVIANASSESVDEVLAFIPSLKTKKEVINQPLQDALEELSKLKKSE
B6: NRPD7 (protein, UniProt Q8LE42 1-174)
chain: MFIKVKLPWDVTIPAEDMDTGLMLQRAIVIRLLEAFSKEKATKDLGYLITPTILENIGEGKIKEQTGEIQFPVVFNGICFKMFKGEIVHGVVHKVHKTGVFLKSGPYEIIYLSHMKMPGYEFIPGENPFFMNQYMSRIQIGARVRFVVLDTEWREAEKDFMALASIDGDNLGPF
B7: NRPE3B (protein, UniProt Q39212 1-319)
chain: MDGVTYQRFPTVKIRELKDDYAKFELRETDVSMANALRRVMISEVPTMAIHLVKIEVNSSVLNDEFIAQRLSLIPLTSERAMSMRFCQDCEDCNGDEHCEFCSVEFPLSAKCVTDQTLDVTSRDLYSADPTVTPVDFTSNSSTSDSSEHKGIIIAKLRRGQELKLKALARKGIGKDHAKWSPAATVTYMYEPDIIINEEMMNTLTDEEKIDLIESSPTKVFGIDPVTGQVVVVDPEAYTYDEEVIKKAEAMGKPGLIEIHPKHDSFVFTVESTGALKASQLVLNAIDILKQKLDAIRLSDNTVEADDQFGELGAHMREG
B8: NRPB8B/D8B/E8B, Q9M1A8 1-146 (protein)
chain: MASNIIMFEDIFVVDKLDPDGKKFDKVTRVEARSHNLEMFMHLDVNTEVYPLAVGDKFTLAMAPTLNLDGTPDTGYFTPGAKKTLADKYEYIMHGKLYKISERDGKTPKAELYVSFGGLLMLLQGDPAHISHFELDQRLFLLMRKL

Results are given in words; binding and its absence hold for the method and conditions named. Binding seen in cells or lysates may run through a third protein. Here binding means that the protein was enriched with, or labelled near, the bait; the list need not be complete. A no says only that the protein was not detected with the bait. For some assays here: Where a sequence is shown, tags or fusion partners need not be part of it.

In one assay the target is NUCLEAR RNA POLYMERASE D1 (NRPD1), carboxy-terminal 3×Flag tagged (Arabidopsis thaliana) (UniProt Q9LQ02). As to the kind of experiment: affinity purification with mass spectrometry; ~10 g flower tissue of NRPD1-3×Flag and NRPD1-3×Flag-BLRP T4 plants (Col as negative control); lysis buffer 50 mM Tris pH7.6, 150 mM NaCl, 5 mM MgCl2, 10% glycerol, 0.1% NP-40; Dynabeads conjugated with a Flag antibody, 4°C 2.5 hours; eluted with 3×Flag peptide.
Settings: not given
For B1, the binding entry is “binds”.
On the same count and under the same terms, as for B2, the entry is “no binding”.
In the case of B3, the binding result is “binds”.
On the same count and under the same terms, the same measure for B4: “binds”; for B5: “binds”; for B6: “binds”.
On the same count and under the same terms, as for B7, the entry is “binds”.

The next assay deals with T1, NUCLEAR RNA POLYMERASE D1 (NRPD1), …. The description is as above. Conditions: remark: other sources report otherwise.
On to B8, for which the binding entry is listed as “no binding”.
